Results reported in patent US4057530A, “2-Phenyl-indole derivatives and process for preparing the same” (priority 1974, dated 1977).
At least one compound was matched to its structure with a doubt left.

Assay: Static thermostability of stabilized resin, simplified method (GARDNER sub-scale), Compound A
Conditions: 210° C
Protocol: The stabilizing power of the substances of the invention was studied from two points of view:
These studies were performed with six different formulae of vinyl resins (hereinafter referred to as Compounds).
The different compounds were mixed and calendered in a mixer of which the cylinders were heated to 160° C. The rigid sheets so obtained were then heated in an oven to a temperature between 180° C and 215° C, until incipient carbonization.
A stove with rotating drums, ventilated and equipped with a thermostat was used for this operation. In the trials described hereunder, the behaviour of a sheet containing the stabilizer to be tested was compared to that of a sheet of the same formula but containing 2-phenyl-indole as stabilizer.
2. It is also possible to use a simplified method which is more rapid and with which valid results are also obtained: a reference scale is drawn up with sheets of thermally treated polyvinyl chloride, of which the colourations have been definitely determined in GARDNER degrees as above. A GARDNER sub-scale is thus obtained in polyvinyl chloride sheets which can be directly compared to the sheets to be tested without using the comparator.
Finally, trials were carried out with Stabilizers 15, 16 and 17 and with 2-phenyl-indole. Compound A was used and the temperature was 210° C.

Structure (SMILES): CCOC(=O)C(C)(C)Oc1ccc(-c2cc3ccccc3[nH]2)cc1 [Stabilizer 5, 2-(4'-carbethoxyisopropyloxy-phenyl)-indole]
- Colouration of sheet (GARDNER sub-scale) (0 min): 1 GARDNER degrees
- Colouration of sheet (GARDNER sub-scale) (3 min): 1 GARDNER degrees
- Colouration of sheet (GARDNER sub-scale) (6 min): 1 GARDNER degrees
- Colouration of sheet (GARDNER sub-scale) (9 min): 2 GARDNER degrees
- Colouration of sheet (GARDNER sub-scale) (12 min): 10 GARDNER degrees
- Colouration of sheet (GARDNER sub-scale) (15 min): 11 GARDNER degrees
